These are yes or no findings as the source states them, for the method shown. Some results given as binding are weak or reduced against the parent protein; the word gives no strength. Where a sequence is shown, tags or fusion partners need not be part of it.
Molecular target: T1, human VISTA on cells (endogenous on human monocytes and AML3 cells; ectopic full-length on 293T cells) (human) (UniProt Q9H7M9)
T1 sequence (looked up): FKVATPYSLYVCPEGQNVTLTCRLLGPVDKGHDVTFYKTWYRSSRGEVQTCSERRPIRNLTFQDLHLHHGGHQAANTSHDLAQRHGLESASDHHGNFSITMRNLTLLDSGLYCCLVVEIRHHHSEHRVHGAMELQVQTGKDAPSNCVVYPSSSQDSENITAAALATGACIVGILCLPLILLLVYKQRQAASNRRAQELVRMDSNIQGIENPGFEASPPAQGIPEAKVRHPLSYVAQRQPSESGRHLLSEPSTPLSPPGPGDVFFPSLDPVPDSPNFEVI
Assay: cell-based assay, PSGL-1 on 293T cells expressing VISTA, acidic pH

Chains of the proteins cited; added tags and fusions are not shown. Lines headed by an entry give the natural chain unless they say otherwise; changes in a name come on top.
UniProt Q14242: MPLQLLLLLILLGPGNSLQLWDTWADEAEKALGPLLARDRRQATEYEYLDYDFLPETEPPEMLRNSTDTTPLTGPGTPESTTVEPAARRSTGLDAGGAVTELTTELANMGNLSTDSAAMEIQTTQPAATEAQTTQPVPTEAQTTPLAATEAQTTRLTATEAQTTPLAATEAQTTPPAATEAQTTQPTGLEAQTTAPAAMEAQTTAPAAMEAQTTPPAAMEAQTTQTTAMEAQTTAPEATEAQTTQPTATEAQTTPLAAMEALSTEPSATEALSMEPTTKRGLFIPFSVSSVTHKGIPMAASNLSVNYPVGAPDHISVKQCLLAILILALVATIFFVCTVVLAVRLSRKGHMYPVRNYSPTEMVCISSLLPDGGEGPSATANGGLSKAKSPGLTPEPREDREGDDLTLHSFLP

binding: binds
Binder: QATEYEYLDYDFLPETEPP (Fc fusion, UniProt Q14242 42-60, looked up, not shown: a dimerising Fc or GST, sulfotyrosine and siayl lewis X carbohydrate post-translational modifications) [human PSGL1 19-mer-huFc (amino-terminal 19 amino acids of mature PSGL1 fused to human Fc)]

— US20250129166A1
